# Experimental data published in PMC2946933.
# The exact form of at least one protein or probe is not confirmed.
# Key:
# Hfq K56A = Hfq K56A (UniProt P0A6X3); experiment: SPR; conditions: SPR: same buffer, 25 C, recombinant protein, label: 5'-32P (EMSA) or 5'-biotin (SPR), probe letters rebuilt from the primers and the genome
# Hfq Y25A = Hfq Y25A (UniProt P0A6X3); experiment: SPR; conditions: SPR: same buffer, 25 C, recombinant protein, label: 5'-32P (EMSA) or 5'-biotin (SPR), probe letters rebuilt from the primers and the genome
# [1] = KD,agg, two-site parallel model
sequence,measurement,setting,value
GCAGCGUUACAUUCCCAUCCACUGGGGAAAGACGCGGCGCUGAUUGGUGAAGUGGUGGAACGUAAAGGUGUUCGUCUUGCCGGUCUGUAUGGCGUGAAACGAACCCUCGAUUUACCACACGCCGAACCGCUUCCGCGUAUAUGCUAAUAAAAUUCUAAAUCUCCUAUAGUUAGUCAAUGACCUUUUGCACCGCUUUGCGGUGCUUUCCUGGAAGAACAAAAUGUCAUAUACACCGAUGAGUGAUCUCGGACAACAAGGGUUGUUCGACAUCACUCGGACAAAUAUUGGAUCCGCUCGG [fhlA220 mRNA],Kd,"Hfq K56A; KD2, microscopic, ka2 2e5 M-1s-1, kd2 7e-2 s-1",400 nM
same,Kd,Hfq K56A; [1],131 nM
same,Kd,"Hfq Y25A; KD1, microscopic, ka1 2e6 M-1s-1, kd1 3.0e-1 s-1",160 nM
same,Kd,Hfq Y25A; [1],176 nM
